Measurements: paper doi:10.1101/2024.12.10.627716
Results are given in words; binding and its absence hold for the method and conditions named. For some of these results: Binding seen in cells or lysates may run through a third protein. Some results given as binding are weak or reduced against the parent protein; the word gives no strength. For some of these results: Sequences can lack the tags named with a protein.

The chains behind the UniProt entries cited, without tags or fusion partners.
UniProt P09651, whole entry: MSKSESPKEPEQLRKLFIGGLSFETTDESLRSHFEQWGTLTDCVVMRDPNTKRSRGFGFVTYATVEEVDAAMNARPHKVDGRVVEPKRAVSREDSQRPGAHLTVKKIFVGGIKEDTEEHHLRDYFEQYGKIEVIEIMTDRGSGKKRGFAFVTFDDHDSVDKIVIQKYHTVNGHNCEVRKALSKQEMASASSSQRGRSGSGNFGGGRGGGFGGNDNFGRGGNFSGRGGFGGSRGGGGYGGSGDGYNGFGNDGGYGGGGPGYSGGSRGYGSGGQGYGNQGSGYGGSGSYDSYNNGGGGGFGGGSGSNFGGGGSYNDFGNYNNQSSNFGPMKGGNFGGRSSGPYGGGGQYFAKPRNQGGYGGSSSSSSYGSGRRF
UniProt P19338, whole entry: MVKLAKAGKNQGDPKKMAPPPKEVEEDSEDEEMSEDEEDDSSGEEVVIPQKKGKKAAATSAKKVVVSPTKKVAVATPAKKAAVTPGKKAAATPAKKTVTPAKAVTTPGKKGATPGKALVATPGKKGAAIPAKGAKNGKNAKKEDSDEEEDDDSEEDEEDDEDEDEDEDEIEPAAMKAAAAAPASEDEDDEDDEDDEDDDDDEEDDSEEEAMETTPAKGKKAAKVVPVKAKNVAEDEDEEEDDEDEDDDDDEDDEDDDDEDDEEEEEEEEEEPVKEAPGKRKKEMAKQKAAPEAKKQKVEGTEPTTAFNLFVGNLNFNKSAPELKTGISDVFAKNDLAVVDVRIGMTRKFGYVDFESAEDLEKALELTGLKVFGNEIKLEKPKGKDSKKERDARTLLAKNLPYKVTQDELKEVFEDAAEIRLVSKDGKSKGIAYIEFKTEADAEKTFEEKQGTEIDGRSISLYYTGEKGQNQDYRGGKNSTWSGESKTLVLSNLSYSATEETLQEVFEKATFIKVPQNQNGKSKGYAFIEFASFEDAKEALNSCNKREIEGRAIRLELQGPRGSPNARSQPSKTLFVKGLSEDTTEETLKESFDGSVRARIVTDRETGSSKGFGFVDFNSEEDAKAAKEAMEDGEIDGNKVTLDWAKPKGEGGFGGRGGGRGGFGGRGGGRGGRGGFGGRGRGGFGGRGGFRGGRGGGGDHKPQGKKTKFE
UniProt Q92804, whole entry: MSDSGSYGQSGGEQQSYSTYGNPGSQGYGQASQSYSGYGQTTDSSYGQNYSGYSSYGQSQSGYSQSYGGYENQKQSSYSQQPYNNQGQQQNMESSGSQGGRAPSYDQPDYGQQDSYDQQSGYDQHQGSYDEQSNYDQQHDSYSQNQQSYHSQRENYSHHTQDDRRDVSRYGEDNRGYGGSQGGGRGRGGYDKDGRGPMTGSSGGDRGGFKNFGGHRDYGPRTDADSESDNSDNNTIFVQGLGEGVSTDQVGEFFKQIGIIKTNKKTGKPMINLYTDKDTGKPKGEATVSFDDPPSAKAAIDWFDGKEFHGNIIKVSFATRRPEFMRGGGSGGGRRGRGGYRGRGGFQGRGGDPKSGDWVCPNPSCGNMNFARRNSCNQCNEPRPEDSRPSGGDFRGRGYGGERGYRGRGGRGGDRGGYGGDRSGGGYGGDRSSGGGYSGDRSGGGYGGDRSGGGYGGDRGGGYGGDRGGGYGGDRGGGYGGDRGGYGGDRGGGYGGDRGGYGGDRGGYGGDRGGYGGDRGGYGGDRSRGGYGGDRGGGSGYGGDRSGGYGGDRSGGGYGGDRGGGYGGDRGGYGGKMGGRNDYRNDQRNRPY

Tests used:
[1] = target: FLAG-tagged hnRNPA1, expressed in HEK293T cells (UniProt P09651); experiment: co-IP
[2] = target: T1, FLAG-tagged RBFOX2, expressed in HEK293T cells (UniProt O43251); experiment: co-IP
T1 sequence: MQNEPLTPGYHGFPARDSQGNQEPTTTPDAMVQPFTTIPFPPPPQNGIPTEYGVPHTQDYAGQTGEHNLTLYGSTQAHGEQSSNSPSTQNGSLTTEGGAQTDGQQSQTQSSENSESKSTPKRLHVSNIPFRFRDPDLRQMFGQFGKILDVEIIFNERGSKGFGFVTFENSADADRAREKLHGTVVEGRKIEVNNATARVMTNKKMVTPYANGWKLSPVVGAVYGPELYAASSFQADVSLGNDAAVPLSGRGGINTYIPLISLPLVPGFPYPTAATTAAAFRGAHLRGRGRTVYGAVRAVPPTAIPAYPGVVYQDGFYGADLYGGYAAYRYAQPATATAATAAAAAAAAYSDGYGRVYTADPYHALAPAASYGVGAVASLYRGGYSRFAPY

[3] = target: FLAG-tagged Nucleolin, expressed in HEK293T cells (UniProt P19338); experiment: co-IP
[4] = target: FLAG-tagged hnRNPK, expressed in HEK293T cells (UniProt P61978); experiment: co-IP
[5] = target: T2, FLAG-tagged GAR1, expressed in HEK293T cells (UniProt Q9NY12); experiment: co-IP
T2 sequence: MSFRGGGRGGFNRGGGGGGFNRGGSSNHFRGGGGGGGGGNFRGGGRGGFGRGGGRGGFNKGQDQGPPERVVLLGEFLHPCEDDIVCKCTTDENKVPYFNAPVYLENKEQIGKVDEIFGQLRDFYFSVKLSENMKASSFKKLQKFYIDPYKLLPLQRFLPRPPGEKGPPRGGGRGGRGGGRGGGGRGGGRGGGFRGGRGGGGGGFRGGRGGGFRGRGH

[6] = target: FLAG-tagged TAF15, expressed in HEK293T cells (UniProt Q92804); experiment: co-IP
[7] = target: T3, FLAG-tagged Fibrillarin, expressed in HEK293T cells (UniProt P22087); experiment: co-IP
T3 sequence: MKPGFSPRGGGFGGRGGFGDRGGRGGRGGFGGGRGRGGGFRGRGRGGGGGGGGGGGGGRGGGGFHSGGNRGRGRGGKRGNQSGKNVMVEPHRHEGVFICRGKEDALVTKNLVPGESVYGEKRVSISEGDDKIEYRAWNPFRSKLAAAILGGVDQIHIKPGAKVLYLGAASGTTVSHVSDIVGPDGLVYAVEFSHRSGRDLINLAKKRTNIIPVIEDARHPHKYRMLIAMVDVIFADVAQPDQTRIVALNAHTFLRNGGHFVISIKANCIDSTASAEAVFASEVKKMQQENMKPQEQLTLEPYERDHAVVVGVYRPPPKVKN

hnRNPA1-FLAG [8] = target: hnRNPA1-FLAG (UniProt P09651); experiment: SEC
[9] = target: T4, fibrillarin (construct of the gel filtration and cryo-EM experiments) (UniProt P22087); experiment: SEC
T4 sequence: T3 sequence

hnRNPA1-FLAG [10] = target: hnRNPA1-FLAG (UniProt P09651); experiment: pull-down

Measured: binding

MYC-PRMT1 wild type, expressed in HEK293T cells (from UniProt Q99873 1-371) (enzyme)
not listed: hnRNPA1-FLAG [8] | [9] | hnRNPA1-FLAG [10]
binds: all other assays above

purified recombinant human PRMT1 protein (wild type) (from UniProt Q99873 1-371) (enzyme)
binds: hnRNPA1-FLAG [8] | [9] | hnRNPA1-FLAG [10]
